# Laboratory results from patent publication EP1215499A1 (priority 1999, dated 2001).
# Protein sequences, listed by entry. Tags and fused reporters are not part of them. Residues count along the entry.
# UniProt P00747, 481-560: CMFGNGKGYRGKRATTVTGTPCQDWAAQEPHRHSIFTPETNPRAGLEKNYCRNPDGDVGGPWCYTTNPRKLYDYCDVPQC
# UniProt P00747, 581-810: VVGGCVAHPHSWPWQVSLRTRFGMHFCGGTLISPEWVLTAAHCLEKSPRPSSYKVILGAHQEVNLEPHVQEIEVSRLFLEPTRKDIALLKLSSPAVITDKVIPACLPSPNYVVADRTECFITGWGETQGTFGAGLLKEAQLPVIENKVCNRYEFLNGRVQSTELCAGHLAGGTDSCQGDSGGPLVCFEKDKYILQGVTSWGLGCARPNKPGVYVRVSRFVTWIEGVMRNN
# Some of these results come from one statement about several compounds together.
# Biological target: T1, miniplasmin (Homo sapiens, UniProt P00747)
# T1 construct: 38kDa (Kringle 5 + L chain); the 12kDa protein of human miniplasmin includes a kringle 5 that begins with V^441; host or cells: no expression host
# Assay type: biochemical
compound,measurement,value
O=S(=O)(F)Cc1ccccc1 [Phenylmethylsulfonyl fluoride],inhibition against the protease activity of miniplasmin,strong inhibition
